# “And” between values parts separate entries of the source, which are not always exact repeats. Identical values can stand only once. In all, about 360,000 compounds went through this assay and about 10,000 (2.8%) were called active. Inconclusive results, whose numbers are uncertain, are shown with a selection of clear calls. Calls follow the shape of the dose curve; as a rule, active = well fitted inhibition curve with a large enough effect; inconclusive = small, poorly fitted or top-dose-only effect; inactive = flat fitted curve, though single readings scatter. A potency beside an inconclusive call is a rough fit, not a confirmed value.
# Sequences of proteins named here, by UniProt entry; tags and fusion partners are left off.
# UniProt P53350, whole entry, looked up: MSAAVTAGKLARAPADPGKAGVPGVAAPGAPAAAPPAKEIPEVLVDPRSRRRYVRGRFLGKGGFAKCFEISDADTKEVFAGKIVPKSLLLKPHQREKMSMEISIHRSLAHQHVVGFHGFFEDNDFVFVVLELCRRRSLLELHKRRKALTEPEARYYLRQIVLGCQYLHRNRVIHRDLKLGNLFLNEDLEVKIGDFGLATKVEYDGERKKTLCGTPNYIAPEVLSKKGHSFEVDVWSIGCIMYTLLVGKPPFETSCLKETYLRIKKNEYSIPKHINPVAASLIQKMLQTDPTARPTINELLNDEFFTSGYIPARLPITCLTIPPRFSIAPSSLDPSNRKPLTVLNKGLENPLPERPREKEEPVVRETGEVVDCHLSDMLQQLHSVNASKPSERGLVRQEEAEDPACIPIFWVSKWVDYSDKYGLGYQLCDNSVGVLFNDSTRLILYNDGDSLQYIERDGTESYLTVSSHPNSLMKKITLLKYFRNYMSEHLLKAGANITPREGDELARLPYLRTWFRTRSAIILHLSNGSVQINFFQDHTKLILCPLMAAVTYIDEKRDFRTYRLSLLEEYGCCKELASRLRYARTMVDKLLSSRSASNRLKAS
# Target: Serine/threonine-protein kinase PLK1 (Homo sapiens) (UniProt P53350)
# Assay: qHTS for Inhibitors of PLK1-PDB (polo-like kinase 1 - polo-box domain): Primary Screen; also: nearly all actives have a fitted effect of over 65% in size; as to max response, negative = inhibition: series mostly up to about 57 µM
# Settings: Plk1 PBD binding of FITC phosphopeptide, fluorescence polarization
# % is scaled to controls: 0 for no effect and ±100 for the full control effect; potency is read from the fitted curve at half-maximal effect.
Structure (SMILES),"max response, negative = inhibition",Potency
Cc1ccc2c(c1)N(CC(=O)Nc1ccccc1F)C(=O)CO2,inactive: 2.39%,
CN(C)S(=O)(=O)c1ccc(NC(=O)COc2cccc3c2OC(C)(C)C3)cc1,inactive: -1.16%,
COc1ccc(Cc2nnc(NC(=O)C3CCCO3)s2)cc1OC (stereo unspecified),,"inconclusive: 26.7 µM [inhibitor, partial curve]"
CCS(=O)(=O)c1cc([N+](=O)[O-])c(Sc2ccccc2N)s1,,active: 23.8 µM
Cc1ccc(S(=O)(=O)ON2C(=O)c3ccccc3C2=O)c(C)c1,,active: 7.52 µM
O=c1cc(CN2CCCc3ccccc32)nc2sccn12,,"inconclusive: 18.9 µM [inhibitor, partial curve]"
COc1ccc(C(=O)c2cc(C(C)=O)c(Nc3ccccc3)s2)cc1,inconclusive: -30.6% [inhibitor],
CC(C)CSc1n[nH]c(=S)s1,,active: 7.52 µM
O=C1C=CC(=O)N1c1ccccc1N1C(=O)C=CC1=O,,active: 1.5 µM
CCCCSc1n[nH]c(=S)c2nc[nH]c12,,"inconclusive: 33.6 µM [inhibitor, partial curve]"
Cc1c(C(=O)OC(C)C)sc(NC(=O)C2CCCO2)c1C(=O)OC(C)C (stereo unspecified),,"inconclusive: 37.7 µM [inhibitor, single point]"
Cc1csc(NC(=O)Nc2ccc(Cl)cc2)n1,,"inconclusive: 8.44 µM [inhibitor, single point]"
COc1ccc(-n2c(C)c(C)c3c(N)ncnc32)cc1,inactive: -0.696%,
O=c1c(/C=N/O)coc2ccc3ccccc3c12,,"inconclusive: 21.2 µM [inhibitor, partial curve]"
CCN(CC)CCOC(=O)c1ccc(NC(=O)/C=C/c2cccs2)cc1,inconclusive: -23.5% [inhibitor],
O=C(NCc1ccc2c(c1)OCO2)c1cc(-c2ccccc2)nn1CC1CC(c2cccnc2)=NO1 (stereo unspecified),,"inconclusive: 37.7 µM [inhibitor, single point]"
CNC(=S)Nc1ccccc1-c1ccccc1,,"inconclusive: 29.9 µM [inhibitor, single point]"
CCc1ccccc1Nc1nn2c(=O)c3ccc(C(=O)NCc4ccccn4)cc3nc2s1,,"inconclusive: 18.9 µM [inhibitor, partial curve]"
O=C(N/N=C/c1ccc2c(c1)OCO2)c1ccc(COc2cccc3cccnc23)cc1,inactive: -0.7%,
O=S(=O)(Nc1ncccn1)c1ccc(NC(=S)NCc2ccco2)cc1,,"inconclusive: 29.9 µM [inhibitor, single point]"
CCOC(=O)C1(CC2CCCCO2)CCN(Cc2cccnc2)CC1 (stereo unspecified),,"inconclusive: 33.6 µM [inhibitor, partial curve]"
COc1ccccc1NC(=O)CSc1nc(O)cc(=O)[nH]1,,"inconclusive: 37.7 µM [inhibitor, single point]"
COc1cc(SC#N)ccc1N=Cc1c(C)[nH]n(-c2ccc(C)c(C)c2)c1=O,,"inconclusive: 21.2 µM [inhibitor, partial curve]"
CCCC(=O)Nc1sc(Cc2ccccc2)c(C)c1C(N)=O,,active: 5.32 µM

Structure (SMILES),"max response, negative = inhibition",Potency
CC(C)C[C@@H](CNCC(=O)[C@H](C)NC(=O)c1[nH]cnc1C(=O)N[C@@H](C)CN)NC(=O)c1nc[nH]c1C(=O)N[C@@H](CC(=O)O)C(=O)O,,"inconclusive: 23.8 µM [inhibitor, single point]"
COc1cc(OC)cc(-c2nnc(Nc3nc4c(F)cccc4s3)o2)c1,,"inconclusive: 7.52 µM [inhibitor, partial curve]"
CCOC(=O)Cc1csc(NS(=O)(=O)c2ccc(Br)cc2)n1,inactive: -0.0783%,
CCN(CC)S(=O)(=O)c1ccc(N=Nc2c(C)[nH]n(C(N)=S)c2=O)cc1,,"inconclusive: 21.2 µM [inhibitor, partial curve]"
Cc1nc(SCC(=O)O)c(C#N)c2c1CCCC2,,"inconclusive: 29.9 µM [inhibitor, single point]"
CCCCN(CCCC)CC(O)CN1C(=O)NC(C)(C)C1=O (stereo unspecified),inactive: -3.85%,
CC(Nc1ccc(F)cc1)=[N+](C)CCNS(=O)(=O)c1ccc(Cl)cc1,,"inconclusive: 42.3 µM [inhibitor, partial curve]"
CC(Oc1cccc(Cl)c1)C(=O)Nc1nc(-c2ccccn2)cs1 (stereo unspecified),,active: 18.9 µM
O=[N+]([O-])c1cc(Cl)cc(/C=N/NC(=S)Nc2cc(S(=O)(=O)N3CCOCC3)ccc2Cl)c1O,,active: 10.6 µM
O=C(N/N=C/c1cc(Br)cc(Cl)c1O)c1ccc2c(c1)OCO2,inactive: 2.38%,
COc1ccc(OC)c(S(=O)(=O)Nc2ccc(O)c3ccccc23)c1,,"inconclusive: 26.7 µM [inhibitor, single point]"
c1ccc(-c2nnc3n2NC(c2ccc4c(c2)OCO4)S3)cc1 (stereo unspecified),,"inconclusive: 29.9 µM [inhibitor, partial curve]"
NS(=O)(=O)c1ccc(NC(=S)NCc2cccs2)cc1,,active: 23.8 µM
CC1(C)CC(=O)C/C(=N/NC(=O)CCCOc2ccc(Cl)cc2Cl)C1,inconclusive: -37.1% [inhibitor],
CCOC(=O)C1(Cc2cccc(OC)c2)CCN(C/C=C/c2ccc(OC)cc2)CC1,inconclusive: -31.1% [inhibitor],
O=C1c2c(O)cccc2C(C2OC(CO)[C@@H](O)[C@H](O)[C@H]2O)c2cc(CO)cc(O)c21 (stereo partly specified),,"inconclusive: 33.6 µM [inhibitor, single point]"
CC(=O)NCCN1C(=O)S/C(=C\c2cccs2)C1=O,,"inconclusive: 21.2 µM [inhibitor, single point]"
COc1ccc(CCNC(=S)N2CCC(C(N)=O)CC2)cc1,,active: 33.6 µM
CC1CC(C)CN(C(=S)NC2CCCCC2)C1 (stereo unspecified),,"inconclusive: 29.9 µM [inhibitor, partial curve]"
N#Cc1c(-n2cccc2/C=N/O)sc2c1CCCC2,inactive: -6.85%,
CC(CNC(=O)Cn1cnc2c(OCc3ccccc3)ncnc21)c1ccccc1 (stereo unspecified),inactive: -8.63%,
CN(C)c1ccc(C=C2C(=O)OC(C)(C(C)(C)C)OC2=O)cc1 (stereo unspecified),,"inconclusive: 2.67 µM [inhibitor, full curve]"
S=c1[nH]nc(-c2ccco2)n1/N=C/c1ccccc1,,"inconclusive: 29.9 µM [inhibitor, partial curve]"
Cc1noc(NS(=O)(=O)c2ccc(NC(=O)c3cc(-c4ccccc4Cl)nc4ccccc34)cc2)c1C,,active: 37.7 µM

Structure (SMILES),"max response, negative = inhibition",Potency
Cc1ccccc1S(=O)(=O)N1[C@@H](c2ccccc2)C(C(=O)O)=CC[C@H]1c1ccc(Cl)cc1,,"inconclusive: 21.2 µM [inhibitor, single point]"
COc1ccc(-c2cc(NC(C)=O)c3ncc(-c4cc(OC)c(OC)c(OC)c4)n3c2)cn1,,"inconclusive: 29.9 µM [inhibitor, partial curve]"
O=C(NC(=S)Nc1ccc2ncccc2c1)c1ccccc1,inactive: -0.475%,
CCCN(CCC)C(=O)CC(c1ccc(F)cc1)c1ccco1 (stereo unspecified),,"inconclusive: 26.7 µM [inhibitor, partial curve]"
CC1CCN(C(=S)c2ccccc2O)CC1,,active: 15 µM
CCOC(=O)c1c(NC(=O)C2C3CCC(O3)C2C(=O)O)sc2c1CCC(CC)C2 (stereo unspecified),,"inconclusive: 26.7 µM [inhibitor, partial curve]"
C/C(N)=C(/C#N)C(=O)CSc1nnc(Nc2c(C)cccc2C)s1,inactive: -17.3% and inactive: -20.4%,
O=C(Cc1ccccc1)NC(NC(=O)Cc1ccccc1)c1cccc([N+](=O)[O-])c1,,"inconclusive: 21.2 µM [inhibitor, single point]"
CN1C(=O)C(N=Nc2ccccc2C(=O)O)N(C)C1=S (stereo unspecified),,"inconclusive: 26.7 µM [inhibitor, single point]"
C=CCc1cccc2cc(C(=O)NC(C)(C)C)c(=O)oc12,,"inconclusive: 29.9 µM [inhibitor, partial curve]"
Cn1c(-c2cccc3ccccc23)n[nH]c1=S,inactive: -7.49%,
O=C(OCc1cnc(Cl)s1)c1c(F)cccc1F,,active: 23.8 µM
Cc1ccc(N(C(=O)c2csnn2)C(C(=O)NC2CCCC2)c2ccccn2)c(C)c1 (stereo unspecified),inactive: 3.24%,
O=C(OCC#CCSc1nnc(-c2cccc3ccccc23)o1)c1ccco1,inactive: -11.9%,
COc1cc2c(cc1OC)CN(CC(=O)Nc1ccc(C)c(S(=O)(=O)N3CCOCC3)c1)CC2,inactive: -4.66%,
O=c1nc(SCc2c(F)cccc2Cl)nc(-c2ccc(Cl)cc2)[nH]1,,active: 21.2 µM
O=C(N/N=C/c1ccccc1F)c1ccccc1OCc1ccccc1,inactive: 1.11%,
CCn1c(CNc2nc(-c3ccccc3)cs2)nnc1SCC(=O)NCc1ccccc1,,"inconclusive: 29.9 µM [inhibitor, partial curve]"
CCC(=O)N1CCN(CCN=CC2=C(O)CC(c3ccc(OC)cc3)CC2=O)CC1 (stereo unspecified),,"inconclusive: 21.2 µM [inhibitor, partial curve]"
COC(=O)[C@@]12C[C@@H](CC(=O)NCc3ccc(C)o3)C(=O)N(CCc3ccc(OC)c(OC)c3)C1=CCC(C)(C)C2,inactive: -15.2%,
CNC(=S)N/N=C/c1ccccc1OCC(=O)O,inconclusive: -32.1% [inhibitor],
CCOC(=O)C1=C(O)/C(=C/c2cn(CC(=O)NCC3CCCO3)c3ccccc23)SC1=Nc1ccc(C)cc1 (stereo unspecified),,"inconclusive: 10.6 µM [inhibitor, partial curve]"
CSc1nc2ccc(NC(=O)C3CC(=O)N(Cc4ccccc4)C3)cc2s1 (stereo unspecified),,"inconclusive: 26.7 µM [inhibitor, single point]"

# Reference: PubChem BioAssay AID720504 (National Center for Advancing Translational Sciences (NCATS), 2013)
